Measurements published in patent US9938321B2, “Cyclic peptoid oligomers, pharmaceutical compositions and methods of using the same” (priority 2013, dated 2018).
Non-standard residues stand in square brackets, D forms with d. Residues, ends and D or L forms follow the SMILES beside them. Nphe = O=C(O)CNCc1ccccc1; Orn = NCCC[C@H](N)C(=O)O; Nlys = NCCCCNCC(=O)O

test system: HeLa cells; details: HeLa cells versus MRSA USA300
Method: As an additional parameter of selectivity, the inventors also evaluated the compounds for toxicity towards nucleated mammalian cells (FIG. 3). The compounds were incubated with HeLa cells for 1 hr at 37° C. and cell viability was determined by a dye-based assay.
HeLa cells (˜[…] cells per well) were seeded in a tissue culture-treated 96-well plate (Corning). The cells were monitored for confluence via light microscopy prior to the addition of compounds to a final volume of 100 μL/well. Following incubation with the compounds (for 1 hour or 24 hours at 37° C.), Cell Titer (Promega) was added to each well and the assay was allowed to develop for 1 hour at 37° C. Absorbance was then read at 490 nm using a Wallac Envision plate reader. The experiments were always conducted in triplicate with water or ethanol as the negative control. Percent cell viability (% CV) was calculated as the ratio of mean absorbance of the test wells and the mean absorbance of the water or ethanol treated wells.
Following seeding in DMEM supplemented with 10% v/v FBS (fetal bovine serum) in tissue-culture plates (Corning), adherent HeLa cells were trypsinized, washed in PBS, and re-suspended in medium at a density of 1×10^6 cells/mL. A 100 μL cell suspension was seeded onto a 96-well plate and cultured for 25 hrs. Subsequently, cells were exposed to the different compounds for 1 and 24 hrs and the cell viability evaluated using CellTiter 96® AQueous Non-Radioactive Cell Proliferation Assay (Promega).

Compound | TI (therapeutic index) = LC50/MIC
Cc1cc(C)cc(CN2CC(=O)N(CCCN)CC(=O)N(Cc3cc(C)cc(C)c3)CC(=O)N(CCCN)CC(=O)N(Cc3cc(C)cc(C)c3)CC(=O)N(CCCN)CC2=O)c1 [Compound C124, C(NapNdmb)3] | 45
N=C(N)NCCCCN1CC(=O)N(CC(c2ccccc2)c2ccccc2)CC(=O)N(CCCCNC(=N)N)CC(=O)N(CC(c2ccccc2)c2ccccc2)CC(=O)N(CCCCNC(=N)N)CC(=O)N(CC(c2ccccc2)c2ccccc2)CC(=O)N(CCCCNC(=N)N)CC(=O)N(CC(c2ccccc2)c2ccccc2)CC(=O)N(CCCCNC(=N)N)CC(=O)N(CC(c2ccccc2)c2ccccc2)CC1=O [Compound 31, C(NgbNdp)5] | >1
CC(C)C[C@@H]1NC(=O)[C@H](CCCN)NC(=O)[C@H](C(C)C)NC(=O)[C@@H]2CCCN2C(=O)[C@@H](Cc2ccccc2)NC(=O)[C@H](CC(C)C)NC(=O)[C@H](CCCN)NC(=O)[C@H](C(C)C)NC(=O)[C@@H]2CCCN2C(=O)[C@@H](Cc2ccccc2)NC1=O [Gramicidin S, reference compound] (cyclo(V[Orn]L[dF]PV[Orn]L[dF]P)) | 1
NCCCCN1CC(=O)N(Cc2ccccc2)CC(=O)N(CCCCN)CC(=O)N(Cc2ccccc2)CC(=O)N(CCCCN)CC(=O)N(Cc2ccccc2)CC1=O [Compound 30, C(NabNpm)3] (cyclo([Nlys][Nphe][Nlys][Nphe][Nlys][Nphe])) | >1
